Results reported in the supplement of paper PMC12595434, “Development of retinoid nuclear receptor pathway antagonists through targeting aldehyde dehydrogenase 1A3” (iScience, 2025).
This is one part of the list. This is a noisy data set.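 Many melting curves are irregular; where none melted, Tm was taken as 64 °C.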

Protein sequences, listed by entry. Tags and fused reporters are not part of them. Lines headed by an entry give the natural chain unless they say otherwise; changes in a name come on top.
UniProt Q86TM6, whole entry: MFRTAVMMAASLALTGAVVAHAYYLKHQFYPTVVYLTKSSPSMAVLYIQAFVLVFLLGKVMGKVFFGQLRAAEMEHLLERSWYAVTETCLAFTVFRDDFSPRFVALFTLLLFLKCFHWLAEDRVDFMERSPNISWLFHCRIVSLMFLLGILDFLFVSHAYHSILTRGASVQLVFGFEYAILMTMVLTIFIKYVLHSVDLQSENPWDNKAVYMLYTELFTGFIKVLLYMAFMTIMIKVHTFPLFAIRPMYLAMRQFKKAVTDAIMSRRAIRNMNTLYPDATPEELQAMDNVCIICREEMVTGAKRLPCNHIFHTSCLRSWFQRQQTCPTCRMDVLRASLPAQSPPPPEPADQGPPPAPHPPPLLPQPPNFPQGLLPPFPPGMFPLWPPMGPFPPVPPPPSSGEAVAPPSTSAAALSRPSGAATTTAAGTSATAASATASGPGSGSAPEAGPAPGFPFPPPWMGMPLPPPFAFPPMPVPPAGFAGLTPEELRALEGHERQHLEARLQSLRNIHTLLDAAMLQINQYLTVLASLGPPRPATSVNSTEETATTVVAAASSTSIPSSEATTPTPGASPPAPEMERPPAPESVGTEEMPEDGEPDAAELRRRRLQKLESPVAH
UniProt Q70CQ3: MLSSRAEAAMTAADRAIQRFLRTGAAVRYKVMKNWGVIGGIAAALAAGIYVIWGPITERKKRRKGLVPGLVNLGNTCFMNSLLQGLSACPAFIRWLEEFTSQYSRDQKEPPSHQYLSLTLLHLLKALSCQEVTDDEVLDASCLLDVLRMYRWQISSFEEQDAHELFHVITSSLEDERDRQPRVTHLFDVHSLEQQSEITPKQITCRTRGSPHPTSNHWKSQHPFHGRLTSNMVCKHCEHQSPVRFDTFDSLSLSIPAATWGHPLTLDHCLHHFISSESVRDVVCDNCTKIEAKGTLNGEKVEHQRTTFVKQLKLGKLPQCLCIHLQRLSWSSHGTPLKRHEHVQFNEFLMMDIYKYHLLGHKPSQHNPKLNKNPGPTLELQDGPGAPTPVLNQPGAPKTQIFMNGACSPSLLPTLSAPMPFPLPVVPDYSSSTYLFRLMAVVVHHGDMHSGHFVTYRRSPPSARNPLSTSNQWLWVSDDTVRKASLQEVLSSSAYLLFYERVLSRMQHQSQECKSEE
UniProt Q6S8J3, whole entry: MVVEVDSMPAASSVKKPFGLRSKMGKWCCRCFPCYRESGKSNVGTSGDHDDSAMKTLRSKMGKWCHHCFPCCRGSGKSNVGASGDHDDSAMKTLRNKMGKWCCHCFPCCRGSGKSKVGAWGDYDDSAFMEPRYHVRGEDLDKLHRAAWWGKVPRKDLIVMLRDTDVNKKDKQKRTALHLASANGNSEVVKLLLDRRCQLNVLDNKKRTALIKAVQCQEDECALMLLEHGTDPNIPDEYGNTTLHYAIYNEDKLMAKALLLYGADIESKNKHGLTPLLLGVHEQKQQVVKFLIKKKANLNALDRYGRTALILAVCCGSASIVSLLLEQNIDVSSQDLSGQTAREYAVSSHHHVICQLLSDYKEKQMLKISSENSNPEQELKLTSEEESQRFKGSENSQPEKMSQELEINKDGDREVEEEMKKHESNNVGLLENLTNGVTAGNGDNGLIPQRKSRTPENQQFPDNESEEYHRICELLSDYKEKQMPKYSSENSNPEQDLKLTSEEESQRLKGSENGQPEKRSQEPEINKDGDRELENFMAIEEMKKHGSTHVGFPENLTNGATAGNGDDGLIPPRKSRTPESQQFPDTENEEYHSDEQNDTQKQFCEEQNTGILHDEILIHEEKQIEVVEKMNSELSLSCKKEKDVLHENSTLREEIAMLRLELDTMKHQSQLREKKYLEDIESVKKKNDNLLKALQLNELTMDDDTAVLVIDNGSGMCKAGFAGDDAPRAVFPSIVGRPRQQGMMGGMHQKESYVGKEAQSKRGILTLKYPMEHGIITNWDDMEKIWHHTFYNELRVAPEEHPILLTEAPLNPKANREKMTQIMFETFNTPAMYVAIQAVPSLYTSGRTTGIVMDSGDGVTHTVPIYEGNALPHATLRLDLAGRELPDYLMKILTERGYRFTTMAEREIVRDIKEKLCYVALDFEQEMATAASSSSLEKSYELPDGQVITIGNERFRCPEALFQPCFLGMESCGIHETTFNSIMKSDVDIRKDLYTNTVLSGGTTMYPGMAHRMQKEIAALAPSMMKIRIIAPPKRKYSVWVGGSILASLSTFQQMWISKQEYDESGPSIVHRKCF
UniProt Q86U86, whole entry: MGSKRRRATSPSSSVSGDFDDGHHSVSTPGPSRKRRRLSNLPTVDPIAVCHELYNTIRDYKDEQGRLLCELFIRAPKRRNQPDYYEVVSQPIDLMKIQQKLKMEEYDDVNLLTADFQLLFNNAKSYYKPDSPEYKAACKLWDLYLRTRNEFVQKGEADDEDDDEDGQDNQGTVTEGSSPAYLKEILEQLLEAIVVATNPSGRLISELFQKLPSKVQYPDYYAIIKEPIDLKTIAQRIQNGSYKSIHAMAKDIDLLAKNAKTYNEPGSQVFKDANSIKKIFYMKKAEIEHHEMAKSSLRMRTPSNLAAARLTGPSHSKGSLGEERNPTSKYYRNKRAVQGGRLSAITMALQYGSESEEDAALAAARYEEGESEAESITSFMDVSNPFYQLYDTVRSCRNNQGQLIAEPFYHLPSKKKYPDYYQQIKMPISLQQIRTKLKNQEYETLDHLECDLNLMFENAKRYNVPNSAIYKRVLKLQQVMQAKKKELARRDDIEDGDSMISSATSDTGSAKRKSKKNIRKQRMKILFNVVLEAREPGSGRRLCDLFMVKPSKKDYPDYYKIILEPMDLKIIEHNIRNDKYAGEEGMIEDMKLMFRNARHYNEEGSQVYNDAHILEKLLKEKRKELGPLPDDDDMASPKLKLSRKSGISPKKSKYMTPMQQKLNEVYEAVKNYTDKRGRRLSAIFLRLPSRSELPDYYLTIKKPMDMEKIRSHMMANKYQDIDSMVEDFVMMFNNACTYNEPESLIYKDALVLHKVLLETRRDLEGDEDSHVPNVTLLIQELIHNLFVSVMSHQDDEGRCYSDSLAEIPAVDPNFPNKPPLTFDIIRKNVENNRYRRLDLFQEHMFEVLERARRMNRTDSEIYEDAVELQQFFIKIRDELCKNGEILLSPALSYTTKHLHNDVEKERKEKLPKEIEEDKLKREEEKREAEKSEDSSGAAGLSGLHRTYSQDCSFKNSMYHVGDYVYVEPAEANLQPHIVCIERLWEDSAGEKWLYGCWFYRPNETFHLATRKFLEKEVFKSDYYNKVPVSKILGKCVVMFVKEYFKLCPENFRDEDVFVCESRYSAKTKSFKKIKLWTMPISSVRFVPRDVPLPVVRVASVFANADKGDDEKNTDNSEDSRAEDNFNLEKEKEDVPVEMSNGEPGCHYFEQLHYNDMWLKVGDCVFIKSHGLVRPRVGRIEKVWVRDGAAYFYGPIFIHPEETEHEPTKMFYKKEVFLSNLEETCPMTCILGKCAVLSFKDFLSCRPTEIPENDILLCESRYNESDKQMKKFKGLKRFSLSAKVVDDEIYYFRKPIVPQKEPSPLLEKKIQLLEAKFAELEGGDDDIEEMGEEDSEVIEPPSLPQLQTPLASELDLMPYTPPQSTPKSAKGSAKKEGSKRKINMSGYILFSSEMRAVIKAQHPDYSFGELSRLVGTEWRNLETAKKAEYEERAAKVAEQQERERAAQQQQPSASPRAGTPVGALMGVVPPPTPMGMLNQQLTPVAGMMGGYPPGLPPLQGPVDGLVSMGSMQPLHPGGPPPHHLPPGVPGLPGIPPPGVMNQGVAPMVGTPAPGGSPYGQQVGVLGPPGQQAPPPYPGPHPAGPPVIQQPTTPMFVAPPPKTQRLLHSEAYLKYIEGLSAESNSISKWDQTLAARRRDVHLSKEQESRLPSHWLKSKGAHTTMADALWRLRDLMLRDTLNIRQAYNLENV
UniProt Q6ZSR9: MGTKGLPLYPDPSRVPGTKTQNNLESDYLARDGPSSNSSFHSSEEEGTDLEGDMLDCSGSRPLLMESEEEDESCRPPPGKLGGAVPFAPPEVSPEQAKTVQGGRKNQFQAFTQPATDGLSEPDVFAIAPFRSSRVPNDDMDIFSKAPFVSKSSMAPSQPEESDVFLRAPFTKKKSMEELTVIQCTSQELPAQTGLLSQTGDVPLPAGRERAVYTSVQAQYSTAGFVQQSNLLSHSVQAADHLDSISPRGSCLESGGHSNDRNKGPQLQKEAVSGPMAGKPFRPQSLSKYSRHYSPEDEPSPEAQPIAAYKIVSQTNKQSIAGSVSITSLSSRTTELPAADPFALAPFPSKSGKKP
UniProt Q6PIJ6: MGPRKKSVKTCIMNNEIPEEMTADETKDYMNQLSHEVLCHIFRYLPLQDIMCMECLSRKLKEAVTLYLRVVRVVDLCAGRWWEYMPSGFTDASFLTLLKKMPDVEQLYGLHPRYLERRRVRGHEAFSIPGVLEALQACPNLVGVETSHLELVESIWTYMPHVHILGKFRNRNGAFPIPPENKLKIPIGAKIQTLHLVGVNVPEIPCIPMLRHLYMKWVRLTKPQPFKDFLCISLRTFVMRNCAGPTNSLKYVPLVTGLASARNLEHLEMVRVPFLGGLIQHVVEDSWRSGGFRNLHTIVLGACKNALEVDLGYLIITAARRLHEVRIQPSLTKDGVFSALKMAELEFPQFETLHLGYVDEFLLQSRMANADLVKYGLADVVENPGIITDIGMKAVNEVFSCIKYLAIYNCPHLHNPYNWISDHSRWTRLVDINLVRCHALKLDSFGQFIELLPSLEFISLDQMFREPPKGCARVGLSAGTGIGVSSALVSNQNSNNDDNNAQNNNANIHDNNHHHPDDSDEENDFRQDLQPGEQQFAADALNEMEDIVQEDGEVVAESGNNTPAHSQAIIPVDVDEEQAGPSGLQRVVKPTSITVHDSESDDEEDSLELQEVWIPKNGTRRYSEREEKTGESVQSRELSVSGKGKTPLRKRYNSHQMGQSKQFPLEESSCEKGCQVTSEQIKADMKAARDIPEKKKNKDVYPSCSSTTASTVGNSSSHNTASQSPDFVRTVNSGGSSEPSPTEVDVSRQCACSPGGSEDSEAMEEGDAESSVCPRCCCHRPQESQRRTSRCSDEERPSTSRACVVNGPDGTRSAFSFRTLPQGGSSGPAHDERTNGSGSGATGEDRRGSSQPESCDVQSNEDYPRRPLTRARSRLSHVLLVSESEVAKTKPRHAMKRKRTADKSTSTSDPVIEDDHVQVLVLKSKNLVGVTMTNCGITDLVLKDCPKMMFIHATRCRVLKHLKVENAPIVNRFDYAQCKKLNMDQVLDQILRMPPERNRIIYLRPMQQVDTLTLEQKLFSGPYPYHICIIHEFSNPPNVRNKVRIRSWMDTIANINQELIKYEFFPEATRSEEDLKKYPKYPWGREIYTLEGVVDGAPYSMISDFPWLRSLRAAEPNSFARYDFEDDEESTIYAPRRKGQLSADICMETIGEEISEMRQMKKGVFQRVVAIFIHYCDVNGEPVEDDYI
UniProt Q7Z7B1: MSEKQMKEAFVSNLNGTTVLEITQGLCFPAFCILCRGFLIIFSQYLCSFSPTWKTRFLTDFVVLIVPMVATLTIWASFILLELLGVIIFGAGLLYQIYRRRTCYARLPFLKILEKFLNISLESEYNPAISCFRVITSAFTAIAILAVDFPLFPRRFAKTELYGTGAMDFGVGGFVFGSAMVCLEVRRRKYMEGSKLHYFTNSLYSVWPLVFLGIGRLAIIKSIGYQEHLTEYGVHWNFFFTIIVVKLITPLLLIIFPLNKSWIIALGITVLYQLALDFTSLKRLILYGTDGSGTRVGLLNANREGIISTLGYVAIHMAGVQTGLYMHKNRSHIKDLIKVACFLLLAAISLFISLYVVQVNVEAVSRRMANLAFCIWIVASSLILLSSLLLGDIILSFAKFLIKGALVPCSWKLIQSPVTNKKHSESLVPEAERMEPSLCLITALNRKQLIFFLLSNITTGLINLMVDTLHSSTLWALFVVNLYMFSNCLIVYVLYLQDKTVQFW
UniProt Q6ZNA5: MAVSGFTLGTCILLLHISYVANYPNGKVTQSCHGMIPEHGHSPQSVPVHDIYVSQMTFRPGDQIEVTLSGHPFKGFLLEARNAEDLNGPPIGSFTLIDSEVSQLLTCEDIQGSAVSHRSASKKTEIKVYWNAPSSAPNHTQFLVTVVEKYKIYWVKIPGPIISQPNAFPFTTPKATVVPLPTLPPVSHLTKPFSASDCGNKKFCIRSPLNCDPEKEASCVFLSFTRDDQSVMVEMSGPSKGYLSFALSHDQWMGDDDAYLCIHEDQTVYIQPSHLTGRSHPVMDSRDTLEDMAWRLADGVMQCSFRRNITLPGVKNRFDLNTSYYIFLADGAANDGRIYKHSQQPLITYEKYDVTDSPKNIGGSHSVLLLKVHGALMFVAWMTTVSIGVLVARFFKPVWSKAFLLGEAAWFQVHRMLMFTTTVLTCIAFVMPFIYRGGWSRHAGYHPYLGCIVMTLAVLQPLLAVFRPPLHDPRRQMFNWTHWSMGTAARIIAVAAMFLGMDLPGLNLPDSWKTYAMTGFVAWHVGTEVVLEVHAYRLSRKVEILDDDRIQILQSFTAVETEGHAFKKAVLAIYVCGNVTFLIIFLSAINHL

Each target was assayed with CCc1cnccc1C(=O)Nc1cc2c(cc1F)NC(=O)CC2 (assay: melting temperature shift (DMSO Tm minus MBE1-treated Tm) in cellular thermal proteome profiling; higher = less thermal stabilization by MBE1 (negative = stabilized by MBE1)). Conditions: A375; MBE1 concentration: 100 nM.

Target	melting temperature shift [°C]
SYVN1 (UniProt Q86TM6)	0.696
CD109 (UniProt Q6YHK3)	-2.12
UniProt Q71UM5	-0.999
FRA10AC1 (UniProt Q70Z53)	-1.08
MTERF4 (UniProt Q7Z6M4)	-0.884
UniProt Q70CQ3	1.16
UniProt Q6S8J3	-0.105
UniProt Q86U86	-0.173
APTX (UniProt Q7Z2E3)	-1.81
UniProt Q6ZSR9	0.452
GDPGP1 (UniProt Q6ZNW5)	-0.128
ULK3 (UniProt Q6PHR2)	-0.819
FBXO38 (UniProt Q6PIJ6)	0.11
UniProt Q76L83	-1.19
PGM2L1 (UniProt Q6PCE3)	-0.436
UniProt Q86UD0	-1.1
PHLDB2 (UniProt Q86SQ0)	-0.441

Target	melting temperature shift [°C]
UniProt Q86U28	-1.11
VPS13C (UniProt Q709C8)	-1.12
UniProt Q7Z7B1	-0.563
UniProt Q86UW6	-0.781
SLC30A9 (UniProt Q6PML9)	0.666
UniProt Q7Z3E5	-0.89
CWC27 (UniProt Q6UX04)	0.274
FRRS1 (UniProt Q6ZNA5)	-0.791
FIP1L1 (UniProt Q6UN15)	-0.616
UniProt Q7Z698	0.171
UniProt Q6ZTW0	-0.588
UniProt Q7Z7L1	-0.508
UniProt Q7L590	-0.562
ZC3H14 (UniProt Q6PJT7)	0.0855
UniProt Q7L211	-1.31
KDELC2 (UniProt Q7Z4H8)	-0.999

Same assay, conditions: A375; MBE1 concentration: 1 uM

Target	melting temperature shift [°C]
SYVN1 (UniProt Q86TM6)	-4.58
CD109 (UniProt Q6YHK3)	1.39
UniProt Q71UM5	0.905
FRA10AC1 (UniProt Q70Z53)	-0.429
DENND5B (UniProt Q6ZUT9)	-6.66
UniProt Q6S8J3	0.148
UniProt Q86U86	-0.5
UniProt Q6UWU4	-1.75
APTX (UniProt Q7Z2E3)	0.0706
UniProt Q6ZSR9	0.36
GDPGP1 (UniProt Q6ZNW5)	0.00611
TMEM205 (UniProt Q6UW68)	-2.33
ULK3 (UniProt Q6PHR2)	-0.72
FBXO38 (UniProt Q6PIJ6)	0.959
UniProt Q76L83	-1.08
PGM2L1 (UniProt Q6PCE3)	0.0604

Target	melting temperature shift [°C]
UniProt Q86UD0	-1.03
PHLDB2 (UniProt Q86SQ0)	-0.205
UniProt Q86U28	0.696
VPS13C (UniProt Q709C8)	0.22
UniProt Q86UW6	-0.814
ERMP1 (UniProt Q7Z2K6)	-2.78
SLC30A9 (UniProt Q6PML9)	0.446
UniProt Q7Z3E5	0.122
CWC27 (UniProt Q6UX04)	-0.456
FIP1L1 (UniProt Q6UN15)	-0.974
UniProt Q7Z698	0.782
UniProt Q6ZTW0	0.327
UniProt Q7Z7L1	-0.0988
UniProt Q7L590	8.78
ZC3H14 (UniProt Q6PJT7)	0.208
KDELC2 (UniProt Q7Z4H8)	0.706
